For this assay, the target named is NET4B with C-terminal deletion including the IRQ domain, yeast two-hybrid fusion (Arabidopsis thaliana). The assay is described as follows: two-hybrid.

Results are given in words; binding and its absence hold for the method and conditions named. Sequences can lack the tags named with a protein.

B1: CA-RABG3a (Q67L), yeast two-hybrid fusion (protein, UniProt Q948K8 1-206)
chain: MATRRRTLLKVIVLGDSGVGKTSLMNQYVHKKFSMQYKATIGADFVTKELQIGEKLVTLQIWDTAGLERFQSLGAAFYRGADCCALVYDVNVLRSFDNLETWHEEFLKQASPSDPKTFPFIVLGNKIDVDGGSSRVVSDKKAADWCASNGNIPYFETSAKDDFNVDEAFLTIAKTALANEHEQDIYFQGIPDAVTENEPKGGGCAC
As to B1, the binding result was “no binding”.

The values are drawn from doi:10.1101/2021.09.29.461190.
